Assay results as given in the supplement of paper PMC10849652.
This is one part of the list.

By UniProt entry, the sequences of proteins in these tests, tags left out. Where a name states a change or a piece, a line headed by the entry shows the natural chain unless it says otherwise.
UniProt Q6JQN1: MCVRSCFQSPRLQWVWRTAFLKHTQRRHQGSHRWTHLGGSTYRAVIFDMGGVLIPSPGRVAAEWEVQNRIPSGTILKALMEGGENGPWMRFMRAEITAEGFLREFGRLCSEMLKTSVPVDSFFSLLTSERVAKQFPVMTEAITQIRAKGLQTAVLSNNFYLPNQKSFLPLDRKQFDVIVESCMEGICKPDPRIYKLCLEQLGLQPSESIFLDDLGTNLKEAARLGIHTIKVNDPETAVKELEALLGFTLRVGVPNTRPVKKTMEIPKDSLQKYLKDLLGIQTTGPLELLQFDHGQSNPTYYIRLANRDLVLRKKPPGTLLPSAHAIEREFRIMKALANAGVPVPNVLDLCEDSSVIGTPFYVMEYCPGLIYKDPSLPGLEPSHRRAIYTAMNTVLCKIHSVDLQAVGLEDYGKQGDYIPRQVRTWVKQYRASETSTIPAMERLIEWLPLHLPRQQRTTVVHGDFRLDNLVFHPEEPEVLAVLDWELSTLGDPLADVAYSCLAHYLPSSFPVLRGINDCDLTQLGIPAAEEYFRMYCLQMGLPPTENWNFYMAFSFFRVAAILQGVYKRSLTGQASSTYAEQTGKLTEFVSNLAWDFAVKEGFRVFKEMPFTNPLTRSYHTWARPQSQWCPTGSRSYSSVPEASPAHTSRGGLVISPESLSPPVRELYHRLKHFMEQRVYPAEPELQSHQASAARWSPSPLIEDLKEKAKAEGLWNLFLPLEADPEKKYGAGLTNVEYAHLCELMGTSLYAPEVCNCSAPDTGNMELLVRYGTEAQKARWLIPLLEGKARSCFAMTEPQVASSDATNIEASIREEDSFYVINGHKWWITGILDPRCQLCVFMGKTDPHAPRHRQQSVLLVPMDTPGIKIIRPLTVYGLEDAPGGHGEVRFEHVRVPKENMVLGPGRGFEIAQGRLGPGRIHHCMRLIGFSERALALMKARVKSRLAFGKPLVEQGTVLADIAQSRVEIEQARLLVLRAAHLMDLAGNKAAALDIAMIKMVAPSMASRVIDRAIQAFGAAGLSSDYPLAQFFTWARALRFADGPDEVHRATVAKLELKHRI
UniProt P42684, whole entry, looked up: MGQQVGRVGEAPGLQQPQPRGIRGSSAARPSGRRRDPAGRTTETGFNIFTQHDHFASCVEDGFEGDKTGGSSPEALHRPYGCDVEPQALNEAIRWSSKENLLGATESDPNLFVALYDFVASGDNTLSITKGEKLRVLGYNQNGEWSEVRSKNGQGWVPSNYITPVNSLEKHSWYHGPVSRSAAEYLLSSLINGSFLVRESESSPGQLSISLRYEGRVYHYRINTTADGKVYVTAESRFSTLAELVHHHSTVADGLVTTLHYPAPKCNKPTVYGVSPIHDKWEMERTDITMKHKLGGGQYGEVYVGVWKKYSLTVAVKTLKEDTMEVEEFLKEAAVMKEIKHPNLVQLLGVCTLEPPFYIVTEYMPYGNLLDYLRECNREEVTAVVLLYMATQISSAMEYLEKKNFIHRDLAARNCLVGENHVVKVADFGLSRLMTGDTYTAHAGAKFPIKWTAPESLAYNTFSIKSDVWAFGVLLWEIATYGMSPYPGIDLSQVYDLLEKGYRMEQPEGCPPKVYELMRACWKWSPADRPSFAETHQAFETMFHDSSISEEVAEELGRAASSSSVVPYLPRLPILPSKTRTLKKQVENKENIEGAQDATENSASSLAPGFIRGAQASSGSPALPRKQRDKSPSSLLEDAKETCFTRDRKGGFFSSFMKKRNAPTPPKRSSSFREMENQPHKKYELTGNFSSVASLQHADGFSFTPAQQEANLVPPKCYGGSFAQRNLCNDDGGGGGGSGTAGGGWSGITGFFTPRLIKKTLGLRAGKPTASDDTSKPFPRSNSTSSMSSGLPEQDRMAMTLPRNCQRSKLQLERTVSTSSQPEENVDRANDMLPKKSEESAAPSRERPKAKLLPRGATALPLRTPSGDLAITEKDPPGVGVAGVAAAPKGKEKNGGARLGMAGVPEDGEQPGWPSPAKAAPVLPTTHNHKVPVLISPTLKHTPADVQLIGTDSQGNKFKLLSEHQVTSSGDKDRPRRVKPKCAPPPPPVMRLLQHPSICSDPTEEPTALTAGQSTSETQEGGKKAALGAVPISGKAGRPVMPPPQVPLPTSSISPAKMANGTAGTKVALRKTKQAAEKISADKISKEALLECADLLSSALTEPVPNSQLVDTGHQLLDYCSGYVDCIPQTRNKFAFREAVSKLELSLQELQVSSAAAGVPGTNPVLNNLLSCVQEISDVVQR
UniProt P53396: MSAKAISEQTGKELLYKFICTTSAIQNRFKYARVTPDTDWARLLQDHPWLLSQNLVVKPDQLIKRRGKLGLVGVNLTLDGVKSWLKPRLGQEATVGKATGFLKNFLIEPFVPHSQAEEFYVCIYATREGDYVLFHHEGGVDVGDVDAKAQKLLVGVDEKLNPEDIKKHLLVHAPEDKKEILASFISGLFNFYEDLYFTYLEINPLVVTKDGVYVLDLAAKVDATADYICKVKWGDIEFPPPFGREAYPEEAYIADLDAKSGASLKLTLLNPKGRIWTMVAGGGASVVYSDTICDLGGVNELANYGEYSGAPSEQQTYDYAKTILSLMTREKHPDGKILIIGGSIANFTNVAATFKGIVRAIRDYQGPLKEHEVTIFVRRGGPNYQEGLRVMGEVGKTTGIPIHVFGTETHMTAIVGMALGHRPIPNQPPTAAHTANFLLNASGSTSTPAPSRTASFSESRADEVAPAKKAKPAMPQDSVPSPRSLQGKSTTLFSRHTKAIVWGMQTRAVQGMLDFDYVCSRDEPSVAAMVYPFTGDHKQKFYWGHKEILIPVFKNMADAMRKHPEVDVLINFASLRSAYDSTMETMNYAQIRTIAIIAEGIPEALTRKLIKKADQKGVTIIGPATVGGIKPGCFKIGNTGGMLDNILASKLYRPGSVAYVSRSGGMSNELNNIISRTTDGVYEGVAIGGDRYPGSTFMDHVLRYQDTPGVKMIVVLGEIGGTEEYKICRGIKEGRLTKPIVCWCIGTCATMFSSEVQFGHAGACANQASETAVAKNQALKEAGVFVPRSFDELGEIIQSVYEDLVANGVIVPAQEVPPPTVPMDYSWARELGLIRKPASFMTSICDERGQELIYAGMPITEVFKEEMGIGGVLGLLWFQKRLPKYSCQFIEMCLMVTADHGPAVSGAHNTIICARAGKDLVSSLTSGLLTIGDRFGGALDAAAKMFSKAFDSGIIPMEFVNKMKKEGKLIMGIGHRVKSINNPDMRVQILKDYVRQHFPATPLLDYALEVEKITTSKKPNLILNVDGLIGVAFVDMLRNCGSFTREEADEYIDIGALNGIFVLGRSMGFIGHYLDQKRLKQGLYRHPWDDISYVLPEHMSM
UniProt P14621: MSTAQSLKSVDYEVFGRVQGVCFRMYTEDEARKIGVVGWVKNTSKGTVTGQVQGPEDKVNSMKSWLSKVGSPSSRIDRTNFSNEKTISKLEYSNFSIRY
UniProt Q04771: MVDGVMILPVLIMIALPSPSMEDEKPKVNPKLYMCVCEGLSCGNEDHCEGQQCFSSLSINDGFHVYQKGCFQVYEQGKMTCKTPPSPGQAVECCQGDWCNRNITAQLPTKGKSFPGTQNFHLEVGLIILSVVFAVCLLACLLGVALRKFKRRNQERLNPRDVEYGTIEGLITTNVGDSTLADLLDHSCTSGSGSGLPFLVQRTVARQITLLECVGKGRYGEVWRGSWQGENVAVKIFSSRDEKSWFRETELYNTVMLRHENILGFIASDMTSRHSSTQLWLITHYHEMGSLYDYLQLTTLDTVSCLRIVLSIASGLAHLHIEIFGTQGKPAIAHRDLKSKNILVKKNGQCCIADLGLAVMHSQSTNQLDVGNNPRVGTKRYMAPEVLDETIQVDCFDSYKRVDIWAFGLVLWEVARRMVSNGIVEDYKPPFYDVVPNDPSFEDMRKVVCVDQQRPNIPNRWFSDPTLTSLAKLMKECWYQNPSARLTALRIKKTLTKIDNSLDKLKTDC
UniProt Q9BV23: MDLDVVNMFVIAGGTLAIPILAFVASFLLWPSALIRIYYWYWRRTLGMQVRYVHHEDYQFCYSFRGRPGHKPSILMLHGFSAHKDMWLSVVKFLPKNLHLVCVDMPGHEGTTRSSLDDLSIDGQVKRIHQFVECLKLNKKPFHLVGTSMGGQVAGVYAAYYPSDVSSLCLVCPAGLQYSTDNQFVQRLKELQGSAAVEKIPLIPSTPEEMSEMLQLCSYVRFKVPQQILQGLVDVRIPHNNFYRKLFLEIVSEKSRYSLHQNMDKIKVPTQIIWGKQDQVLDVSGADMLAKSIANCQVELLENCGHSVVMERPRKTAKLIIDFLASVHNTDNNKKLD
UniProt Q5T3U5: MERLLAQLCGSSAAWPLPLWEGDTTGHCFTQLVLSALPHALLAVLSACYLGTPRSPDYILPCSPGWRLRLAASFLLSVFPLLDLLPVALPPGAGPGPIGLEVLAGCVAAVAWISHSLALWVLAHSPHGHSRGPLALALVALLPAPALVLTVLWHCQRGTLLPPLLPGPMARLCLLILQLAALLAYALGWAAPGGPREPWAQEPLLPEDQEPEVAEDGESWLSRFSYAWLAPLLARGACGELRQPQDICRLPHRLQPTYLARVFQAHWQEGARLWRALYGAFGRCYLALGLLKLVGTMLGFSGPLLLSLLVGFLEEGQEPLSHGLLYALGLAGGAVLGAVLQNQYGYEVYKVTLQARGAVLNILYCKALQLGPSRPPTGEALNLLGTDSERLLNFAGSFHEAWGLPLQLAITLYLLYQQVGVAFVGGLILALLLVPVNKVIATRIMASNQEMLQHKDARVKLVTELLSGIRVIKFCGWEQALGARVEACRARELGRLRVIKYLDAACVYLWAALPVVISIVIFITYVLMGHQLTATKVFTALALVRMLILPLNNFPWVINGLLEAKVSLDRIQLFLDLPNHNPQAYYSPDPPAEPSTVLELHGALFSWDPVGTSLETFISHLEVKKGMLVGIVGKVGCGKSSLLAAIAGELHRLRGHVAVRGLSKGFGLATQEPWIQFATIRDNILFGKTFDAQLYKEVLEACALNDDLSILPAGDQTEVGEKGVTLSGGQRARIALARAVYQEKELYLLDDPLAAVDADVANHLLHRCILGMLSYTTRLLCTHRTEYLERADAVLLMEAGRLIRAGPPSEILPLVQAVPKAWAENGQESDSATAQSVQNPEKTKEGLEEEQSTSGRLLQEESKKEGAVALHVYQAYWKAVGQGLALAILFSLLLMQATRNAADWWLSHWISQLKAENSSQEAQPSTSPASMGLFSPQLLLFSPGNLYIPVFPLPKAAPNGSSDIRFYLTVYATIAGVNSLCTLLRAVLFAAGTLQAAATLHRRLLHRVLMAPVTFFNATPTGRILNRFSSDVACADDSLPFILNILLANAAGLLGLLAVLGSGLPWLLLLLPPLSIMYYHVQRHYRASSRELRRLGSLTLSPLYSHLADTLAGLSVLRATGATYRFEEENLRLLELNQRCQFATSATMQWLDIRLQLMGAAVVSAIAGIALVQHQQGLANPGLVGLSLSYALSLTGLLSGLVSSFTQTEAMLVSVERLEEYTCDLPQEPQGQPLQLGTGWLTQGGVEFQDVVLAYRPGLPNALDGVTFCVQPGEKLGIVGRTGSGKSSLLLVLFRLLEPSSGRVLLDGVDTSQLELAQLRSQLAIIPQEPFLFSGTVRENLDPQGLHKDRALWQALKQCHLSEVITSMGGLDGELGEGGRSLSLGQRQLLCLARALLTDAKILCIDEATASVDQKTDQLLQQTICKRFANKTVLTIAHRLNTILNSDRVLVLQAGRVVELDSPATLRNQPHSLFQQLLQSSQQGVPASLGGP
UniProt Q8TDG2: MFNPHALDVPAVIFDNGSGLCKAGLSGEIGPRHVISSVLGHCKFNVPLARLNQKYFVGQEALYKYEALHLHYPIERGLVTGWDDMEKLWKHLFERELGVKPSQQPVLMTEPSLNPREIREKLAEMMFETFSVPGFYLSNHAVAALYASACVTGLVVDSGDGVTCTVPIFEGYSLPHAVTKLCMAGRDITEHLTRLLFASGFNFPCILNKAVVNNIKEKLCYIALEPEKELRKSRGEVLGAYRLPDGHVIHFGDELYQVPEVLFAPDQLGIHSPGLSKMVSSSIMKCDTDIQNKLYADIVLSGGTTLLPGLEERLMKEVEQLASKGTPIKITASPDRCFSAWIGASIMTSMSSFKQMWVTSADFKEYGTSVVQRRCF
UniProt Q9BTE6: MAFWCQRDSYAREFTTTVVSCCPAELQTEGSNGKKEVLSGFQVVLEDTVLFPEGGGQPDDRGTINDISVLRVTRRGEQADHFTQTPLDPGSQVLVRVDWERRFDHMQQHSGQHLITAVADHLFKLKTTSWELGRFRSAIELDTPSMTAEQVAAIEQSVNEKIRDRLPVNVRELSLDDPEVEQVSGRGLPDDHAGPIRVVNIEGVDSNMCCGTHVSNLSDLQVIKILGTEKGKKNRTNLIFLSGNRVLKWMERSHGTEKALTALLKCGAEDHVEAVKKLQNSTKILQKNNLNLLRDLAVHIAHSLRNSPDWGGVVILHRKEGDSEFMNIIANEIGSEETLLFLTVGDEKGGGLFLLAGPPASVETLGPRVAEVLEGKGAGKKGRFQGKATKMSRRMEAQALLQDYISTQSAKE

Experiments:
Experiment in all cases: log2 fold change, soluble protein after heating vs DMSO (PISA); higher = thermal stabilisation; K562 cells, 10 uM, 30 min; active = over 0.2 and 3.5 SD of the protein, either way, in both replicates (recomputed)
[1] = compound: CC1=C2C(=CC=C1)N=C(N(C2=O)C3=CC=CC=C3C)CN4C=NC5=C(N=CN=C54)N
How it was run: (§1)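 Quantification of soluble protein used TMTpro 16plex LC-MS/MS, with channel sums equalised. Samples were the supernatant after 21,000xg for 90 min of pooled aliquots from K562 cells (2×10^6 cells/mL) treated with 10 μM compound for 30 min, heated for 3 min over 48°C-58°C, and extracted in PBS with 0.5% NP-40 at 4°C. Values, from duplicates, describe thermal stability against control samples on a log2 fold-change scale.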

[2] = compound: C1=CC=C(C=C1)[C@H](COC2=CC3=C(C=C2)NC(=O)N3)NC(=O)C4=CC=CN(C4=O)CC5=CC(=C(C=C5)F)F
How it was run: as §1

[3] = compound: Cc1sc2c(c1C)C(c1ccc(Cl)cc1)=N[C@@H](CC(=O)OC(C)(C)C)c1nnc(C)n1-2
How it was run: as §1

[4] = compound: CC1=C(SC2=C1C(=N[C@H](C3=NN=C(N32)C)CC(=O)N)C4=CC=C(C=C4)Cl)C
How it was run: as §1

[5] = compound: c1ccc([C@@H]2C[C@H]2NC2CCNCC2)cc1
How it was run: as §1

Measured: log2 fold change

ACAD10 isoform 5 (UniProt Q6JQN1)
inactive: [1] 0.016

ACAA2 (UniProt K7ER88)
inactive: [2] 0.188 | [1] 0.023

ACTR3B (UniProt Q9P1U1)
inactive: [1] -0.002 | [3] 0.173

ADCK1 (UniProt Q86TW2)
inactive: [4] 0.052 | [1] 0.014 | [3] 0.202 | [5] -0.015

ABL2 (UniProt P42684)
inactive: [2] -0.21 | [3] 0.025

ACLY isoform 2 (UniProt P53396)
inactive: [2] -0.009 | [1] -0.066 | [3] 0.043

ACAT1 (UniProt P24752)
inactive: [2] 0.009 | [4] 0.045 | [1] 0.03 | [3] -0.057 | [5] 0

ACSL6 isoform 1 (UniProt Q9UKU0)
inactive: [2] 0.012 | [1] 0.29 | [3] -0.009

ACTG1 (UniProt K7EM38)
inactive: [4] -0.609 | [1] 0.225 | [3] 0.128 | [5] -0.234

ABCA4 (UniProt P78363)
inactive: [2] 0.174 | [4] 0.297 | [3] 0.03 | [5] -0.128

ACYP2 (UniProt P14621)
inactive: [4] 0.412 | [1] 0.121 | [3] -0.028 | [5] -0.109

ACVR1 (UniProt Q04771)
inactive: [4] 0.061 | [1] 0.041 | [3] -0.218 | [5] 0.072

Copied from the listing (2 entries):
ACYP2 (UniProt P14621)
inactive: [4] 0.412 | [1] 0.121 | [3] -0.028 | [5] -0.109

ACVR1 (UniProt Q04771)
inactive: [4] 0.061 | [1] 0.041 | [3] -0.218 | [5] 0.072

Further entries.

ABHD6 (UniProt Q9BV23)
inactive: [3] 0.377

ABCC10 (UniProt Q5T3U5)
inactive: [2] -0.061 | [1] 0.033 | [3] 0.05

ACTRT1 (UniProt Q8TDG2)
inactive: [2] -0.066 | [1] 0.264

AARSD1 (UniProt Q9BTE6)
inactive: [2] -0.081 | [4] -0.267 | [5] -0.068

ABCA8 isoform 3 (UniProt O94911)
inactive: [2] -0.201 | [3] -0.098

ABCB1 (UniProt P08183)
inactive: [4] 0.088 | [3] 0.04 | [5] -0.071

ABCA7 (UniProt Q8IZY2)
inactive: [2] -0.254 | [4] 0.23 | [5] 0.188

ACTN4 (UniProt K7EJH8)
inactive: [2] 0.007 | [4] 0.049 | [3] 0.075 | [5] 0.046

ABCB11 (UniProt O95342)
inactive: [4] 0.095 | [3] 0.019 | [5] -0.11

ACAP2 (UniProt Q15057)
inactive: [2] -0.009 | [4] -0.001 | [1] 0.132 | [3] 0.01 | [5] 0.011
